According to PubChem BioAssay AID540256 (National Center for Advancing Translational Sciences (NCATS), 2011):
Hit rate of the full screen: of about 300,000 compounds, about 3,700 (1.2%) were called active. The shares of active, inactive and inconclusive entries below differ from those in the screen. Calls follow the shape of the full dose curve; tested in HEK293 cells. A potency beside an inconclusive call is a rough fit, not a confirmed value.

Test: qHTS for Inhibitors of binding or entry into cells for Lassa Virus; also: nearly all actives have a fitted effect of over 50% in size
Conditions: Lassa virus pseudotype entry inhibition, cell reporter; series mostly up to 37.9 µM
Potency is read from the fitted curve at half-maximal effect.

| Compound | Potency |
| --- | --- |
| CCOCCn1c(N2CCN(c3ccccc3)CC2)nc2c1c(=O)n(C)c(=O)n2C | inconclusive: 4.61 µM [inhibitor, full curve, poor fit] |
| COc1ccc(N2CCN(C(=O)CSc3nnc4c(C)cc5ccc(C)c(C)c5n34)CC2)cc1 | inconclusive: 18.3 µM [inhibitor, single point] |
| Cc1cc(=O)[nH]c(SCC(=O)c2ccc(F)c(C)c2)n1 | inconclusive: 7.08 µM [activator, partial curve, poor fit] |
| O=C(O)COc1ccc(C(=O)Cc2ccc3c(c2)OCCCO3)c(O)c1 | inconclusive: 1.03 µM [inhibitor, full curve, poor fit] |
| O=C(Nc1ncc([N+](=O)[O-])s1)c1ccc2c(c1)OCO2 | inconclusive: 1.12 µM [inhibitor, full curve, poor fit] |
| Cc1nc(SCc2cccc(Oc3ccccc3)c2)n[nH]1 | inconclusive: 22.4 µM [inhibitor, single point] |
| CCSc1nc2cc(OC)c(OC)cc2c(=O)n1CCc1ccccc1 | inconclusive: 13 µM [inhibitor, partial curve, poor fit] |
| O=C(N/N=C/c1ccc(O)cc1)/C(=C/c1ccc([N+](=O)[O-])cc1)NC(=O)c1ccccc1 | inconclusive: 9.2 µM [inhibitor, partial curve, poor fit] |
| CC1(c2ccccc2)CC(C)(C)N(C(=O)c2cccc(Cl)c2)c2ccccc21 (configuration not stated) | inactive |
| O=C1OC(c2ccccc2)(c2ccccc2)c2ccccc21 | inconclusive: 0.501 µM [activator, partial curve, poor fit] |
| COc1ccc(C(CCNCc2ccccc2F)c2ccc(F)cc2)cc1 (configuration not stated) | inconclusive: 11.2 µM [inhibitor, single point] |
| O=C(CN1CCc2ccccc21)Nc1ccc2c(c1)OCO2 | inactive |
| Cc1cccc(-c2noc(-c3ccc(F)cc3)n2)c1 | inconclusive: 29.1 µM [inhibitor, single point] |
| O=C(COC(=O)CCc1nc2ccccc2s1)Nc1ncc(Cl)cc1Cl | inconclusive: 3.98 µM [activator, single point] |
| O=C(NCCN1CCCC1)C1COc2ccccc2O1 (configuration not stated) | inactive |
| COc1cc(NC(=O)c2ccccc2)c(OC)cc1NC(=O)Cc1ccc(Br)cc1 | inconclusive: 35.5 µM [inhibitor, partial curve, poor fit] |
| C[C@@H]1O[C@@H](O[C@H]2C[C@@H](O)[C@]3(CO)[C@@H]4C(CC[C@]3(O)C2)[C@@]2(O)CC[C@H]([C@@H]3COC(=O)C3)[C@@]2(C)C[C@H]4O)[C@H](O)[C@H](O)[C@H]1O (some centres not stated) | active: 2.31 µM |

Some of the entries so far, tab-delimited.
Compound	Potency
O=C(Nc1ncc([N+](=O)[O-])s1)c1ccc2c(c1)OCO2	inconclusive: 1.12 µM [inhibitor, full curve, poor fit]
Cc1nc(SCc2cccc(Oc3ccccc3)c2)n[nH]1	inconclusive: 22.4 µM [inhibitor, single point]
